About 170 (0.05%) of roughly 340,000 compounds were called active. This list was built around the results that the source calls inconclusive (neither active nor inactive); the mix of calls is not that of the screen. The call rests on the fitted dose curve; in most records, active means well fitted inhibition curve with a large enough effect in the signal ratio, with a control signal flat (not every such curve was filed as active); inconclusive means small, poorly fitted or top-dose-only effect, or effect the other way, or a change in a side signal; inactive means flat fitted curve, though single readings scatter; the % refers to the signal ratio. Potencies beside an inconclusive call are fits to weak or partial responses and may not hold up.
Test: qHTS Assay to Find Inhibitors of Chronic Active B-Cell Receptor Signaling;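 on activity change, negative = inhibition: plate controls were basal doxycycline-induced cells for no effect and cells given 10 µM MG132 for full effect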
Settings: ABC-DLBCL IkBa-CBG/CBR reporter, luminescence ratio (green luciferase fused to IkBa over red control in TMD8 lymphoma cells), 4 h; activity change, negative = inhibition: at 46.1 µM (top of the series)
In short: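 Compounds up to 46 uM were incubated four hours with TMD8 cells whose green CBG68 luciferase is fused to IkappaBalpha; red CBR luminescence normalised the signal, and concentration-effect curves were fitted to fusion, red and ratio data.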
For `CCOC(=O)C1=C[C@]2(CC)CCCN3CCc4c(n1c1ccccc41)[C@@H]32`, the Potency was inconclusive: 20.6 µM [falling, partial curve, poor fit].
With `C=C(C)C(=O)N1CC2(CC(c3cccc(NC(=O)CCCCC)c3)=NO2)C[C@H]1C(N)=O` (some centres undefined) the Potency was inconclusive: 17.8 µM [falling, partial curve].
With `CCc1c(O)nc(SCC(=O)Nc2ccccc2)n(C(C)CC)c1=O` (centres undefined) the activity change, negative = inhibition was inconclusive: -42.7%.
In the case of `CCOC(=O)C1=NOC(Cn2cc(C(C)=O)c(=O)[nH]c2=O)C1` (centres undefined), the activity change, negative = inhibition is reported as inconclusive: 11.8%.
In the case of `Cc1ccc(CN(C)C(=O)c2cccc(S(=O)(=O)N3CCc4ccccc4C3)c2)o1`, the “activity change, negative = inhibition” value is reported as inactive: -10.5%.
In the case of `O=C(CSC1CC(=O)N(CCc2ccccc2)C1=O)Nc1ccc(Br)cc1` (centres undefined), the “activity change, negative = inhibition” value is reported as inactive: -0.294%.
With `Cc1ccc(NC(=O)NCc2ccc3c(c2)OCO3)cc1` the Potency was inconclusive: 18.4 µM [falling, partial curve, poor fit].
With `O=C(/C=C/c1ccc(F)cc1)c1ccc(N2CCOCC2)cc1` the activity change, negative = inhibition was inconclusive: 10.3%.
In the case of `Cc1ccc(C(=O)OCC(=O)NCc2ccco2)cc1`, the Potency is reported as inconclusive: 14.6 µM [rising, single point].
In the case of `O=C(CSc1nc2c(c(=O)n1-c1ccccc1)SCC2)N1CCOCC1`, the “activity change, negative = inhibition” value is reported as inactive: -2.06%.
In the case of `Cc1ccsc1C(=O)OCC(=O)N(C)C1CCCCC1`, the Potency is reported as inconclusive: 9.2 µM [falling, partial curve, poor fit].
In the case of `Cn1c(=O)n(C)c2cc(S(=O)(=O)O)ccc21`, the Potency is reported as inconclusive: 3.98 µM [falling, partial curve, poor fit].
For `CC(C)C(=O)n1nc(-c2cccnc2)nc1NCc1cccs1`, the Potency was inconclusive: 12.6 µM [falling, partial curve].
With `CN1CCN(CC(=O)Nc2nc(-c3ccccc3)cs2)CC1` the Potency was inconclusive: 31.6 µM [rising, partial curve, poor fit].
For `Cc1ccc(/C=C/C(=O)OCC(=O)NCCc2ccc(S(N)(=O)=O)cc2)o1`, the activity change, negative = inhibition was inconclusive: 1.96%.
With `CCOCCCNC(=O)c1cc2c(=O)n3cccc(C)c3nc2n1C` the activity change, negative = inhibition was inconclusive: 4.19%.
In the case of `C#C[C@]1(O)CCC2C3CCC4=CC(=O)CC[C@@H]4C3CC[C@@]21C` (some centres undefined), the Potency is reported as inconclusive: 8.91 µM [falling, single point].
With `COc1ccccc1/C=C/C=C1\Oc2c(ccc(O)c2CN(C)C)C1=O` the Potency was inconclusive: 7.94 µM [falling, partial curve].
For `O=C(COc1ccc(Br)cc1CNC1CCCCC1)NCCc1ccccc1`, the activity change, negative = inhibition was inconclusive: -15.4%.
For `CC(=O)OCC(=O)[C@@]1(O)CC[C@H]2[C@@H]3C[C@H](C)C4=CC(=O)C=C[C@]4(C)[C@H]3[C@@H](O)C[C@@]21C`, the Potency was inconclusive: 11.2 µM [falling, partial curve].
In the case of `Cc1cc(C2C(=O)C(C(=O)c3ccc(Cl)cc3)C(=O)CC2(C)C)on1` (centres undefined), the “activity change, negative = inhibition” value is reported as inactive: 6.43%.
For `O=C1C=C(c2cccc3c2Oc2ccccc2S3)C[C@@H](c2ccc(Cl)cc2)C1`, the “activity change, negative = inhibition” value was inactive: -3.39%.
With `COc1cccc2sc(N(CCCN(C)C)C(=O)c3sc4ccccc4c3Cl)nc12` the activity change, negative = inhibition was inconclusive: -16.4%.
For `O=C(Nc1ccc(F)cc1)c1ccccc1`, the Potency was inconclusive: 13 µM [falling, partial curve].
In the case of `Cc1cc(C(=O)COc2ccccc2Cl)c(C)n1C1CC1`, the activity change, negative = inhibition is reported as inconclusive: -4.04%.
For `CCOC(=O)N1CCN(S(=O)(=O)c2ccc3c(c2)OCC(=O)N3)CC1`, the activity change, negative = inhibition was inconclusive: -4.05%.
With `Cc1ccc(OCC(=O)N/N=C\c2ccc(C)o2)c([N+](=O)[O-])c1` the “activity change, negative = inhibition” value was inactive: 17.2%.
With `COC(=O)[C@H](CC(C)C)NC(=O)NCCCc1ccccc1` the activity change, negative = inhibition was inconclusive: 9.55%.
In the case of `CCOP(=O)(OCC)c1nc(Cc2ccccc2)oc1NCc1ccccc1`, the “activity change, negative = inhibition” value is reported as inactive: -5.75%.
With `Cc1cnc(NC(=O)c2ccc3c(c2)C(=O)N(Cc2ccco2)C3=O)s1` the activity change, negative = inhibition was inconclusive: -0.372%.
For `COC(=O)C1=C(C)N(C)C(=O)NC1c1ccc([N+](=O)[O-])o1` (centres undefined), the activity change, negative = inhibition was inconclusive: 8.65%.
With `Cc1cc(NC(=O)CCCSc2nc(-c3ccco3)cc(C(F)(F)F)n2)n(-c2ccccc2)n1` the activity change, negative = inhibition was inconclusive: -15.4%.
In the case of `O=C(CCC1COc2ccccc2O1)Nc1cccnc1` (centres undefined), the Potency is reported as inconclusive: 10.3 µM [rising, partial curve, poor fit].
With `O=C(Cc1ccccc1)NC(=S)Nc1cccc(C(F)(F)F)c1` the “activity change, negative = inhibition” value was inactive: 12.2%.
For `O=C(/C=C/NNC(=O)c1cccc(Br)c1)c1ccccc1`, the Potency was inconclusive: 18.4 µM [falling, partial curve].
In the case of `Cc1ccc(CNC(=O)COC(=O)c2nc(-c3ccccc3)oc2C)cc1`, the “activity change, negative = inhibition” value is reported as inactive: -7.38%.
With `CCC(C)NC(=O)c1ccccc1NC(=O)CN(c1ccc(OC)cc1)S(C)(=O)=O` (centres undefined) the “activity change, negative = inhibition” value was inactive: -2.33%.
With `COc1cccc2cc(C(=O)Nc3ccccc3C(=O)N3CCOCC3)oc12` the Potency was inconclusive: 14.1 µM [falling, partial curve].
With `O=C(CCN1C(=O)/C(=C/c2cccs2)SC1=S)Nc1ccccn1` the Potency was inconclusive: 3.16 µM [falling, partial curve].
With `Cc1ccc(Cl)c(OCC(=O)NCc2ccco2)c1` the activity change, negative = inhibition was inconclusive: -10.2%.
With `CCCOc1ccc2c(c1)C(=NN=C(N)N)c1cc(OCCC)ccc1-2` the activity change, negative = inhibition was inconclusive: 13.7%.
In the case of `Cc1nc2cc(NCc3ccccc3O)ccc2n1Cc1ccccc1`, the Potency is reported as inconclusive: 6.31 µM [falling, single point].
For `CC[C@H]1CN2CCc3cc(OC)c(OC)cc3C2C[C@@H]1C[C@H]1NCCc2cc(OC)c(OC)cc21` (some centres undefined), the Potency was inconclusive: 0.461 µM [rising, full curve, poor fit].
With `O=[N+]([O-])c1ccc(N2CCN(S(=O)(=O)c3ccc(Cl)c(Cl)c3)CC2)cc1NCCN1CCOCC1` the “activity change, negative = inhibition” value was inactive: 1.04%.
In the case of `O=C(CN1C(=O)c2ccccc2C1=O)c1ccccc1`, the activity change, negative = inhibition is reported as inconclusive: 5.57%.
For `CSc1nc2sc(-c3ccccc3)cc2c(=O)n1N`, the activity change, negative = inhibition was inconclusive: 9.25%.
In the case of `CCOC(=O)C1CCN(C(=O)/C=C/c2ccccc2)CC1`, the Potency is reported as inconclusive: 10 µM [falling, partial curve].
With `O=C1NC(=Nc2ccc(O)cc2)S/C1=C/c1ccco1` the activity change, negative = inhibition was inconclusive: 350%.
With `N/C(=N\OC(=O)c1cccs1)c1ccc(Cl)cc1` the activity change, negative = inhibition was inconclusive: 2.09%.
With `COc1ccccc1CN(C)CC(=O)Nc1ccc(Cl)cc1C(F)(F)F` the activity change, negative = inhibition was inconclusive: 22.9%.
With `COc1ccccc1CCC(=O)Nc1ccc2c(c1)CN(Cc1ccc(CO)o1)CC2` the Potency was inconclusive: 10 µM [falling, partial curve, poor fit].
With `NC(=O)c1nn2c(C(F)(F)F)cc(-c3ccc(Br)cc3)nc2c1Cl` the “activity change, negative = inhibition” value was inactive: -4.49%.
With `CCOC(=O)Cc1c(C)c2c(C)nn(-c3ccccc3)c2oc1=O` the “activity change, negative = inhibition” value was inactive: 5.63%.
With `CCOC(=O)c1c(C)[nH]c(C(=O)COC(=O)C(C)N2C(=O)C3CCCCC3C2=O)c1C` (centres undefined) the activity change, negative = inhibition was inconclusive: 1.49%.
For `CCOC(CCn1c(SCc2cccc([N+](=O)[O-])c2)nc2ccccc2c1=O)OCC`, the activity change, negative = inhibition was inconclusive: 6.85%.
With `Cc1nc(N=C(N)N)nc2c(C)cccc12` the Potency was inconclusive: 31.6 µM [falling, single point].
In the case of `CCNc1nc(N)c(C(=O)c2ccc(Cl)s2)s1`, the Potency is reported as inconclusive: 16.4 µM [rising, partial curve].
For `O=C(NCc1cccs1)c1cccnc1SCCS(=O)(=O)c1ccc(C(F)(F)F)cn1`, the Potency was inconclusive: 14.1 µM [falling, partial curve].
In the case of `CCC(=O)NC(=S)Nc1ccc(NC(=O)c2ccc([N+](=O)[O-])cc2)cc1`, the activity change, negative = inhibition is reported as inconclusive: 0.965%.
In the case of `CC1=C(C(N)=O)C(c2cccs2)n2nc(-c3cccc(Cl)c3)nc2N1` (centres undefined), the activity change, negative = inhibition is reported as inconclusive: -15.8%.
In the case of `CCC(C)(C)C1CCc2[nH]nc(C(=O)NC3CCCC3)c2C1` (centres undefined), the activity change, negative = inhibition is reported as inconclusive: 0.452%.
In the case of `COc1ccccc1/C=C/C=N/NC(=O)CN1CCN(Cc2ccccc2)CC1`, the Potency is reported as inconclusive: 22.4 µM [falling, partial curve, poor fit].
In the case of `CC(Sc1nnc(Cc2cccs2)n1C)C(=O)Nc1ccc(C(N)=O)cc1` (centres undefined), the activity change, negative = inhibition is reported as inconclusive: 5.39%.
With `COc1ccc(OC)c(NC(=O)C(C)Oc2ccc(Br)cc2)c1` (centres undefined) the activity change, negative = inhibition was inconclusive: 8.11%.
In the case of `O=C(CCSCc1ccc(Cl)cc1)NCc1ccc(F)cc1Cl`, the activity change, negative = inhibition is reported as inconclusive: -24.2%.
With `COC(=O)c1c(NC(=O)c2ccc(S(=O)(=O)N(C)C3CCCCC3)cc2)sc2c1CCN(C)C2` the “activity change, negative = inhibition” value was inactive: -1.41%.
With `CCn1cc(C(=O)O)c(=O)c2cnc(N3CCN(C(=S)NC(=O)c4ccc(OC)cc4)CC3)nc21` the activity change, negative = inhibition was inconclusive: 3.58%.
With `CC(C)C[C@H](NC(=O)OC(C)(C)C)C(=O)N/N=C/C1=Cc2ccccc2OC1C` (some centres undefined) the Potency was inconclusive: 5.17 µM [falling, full curve, poor fit].
For `CN1C(=O)C(O)(C2COC(C)(C)CC2=O)c2cc(Br)ccc21` (centres undefined), the Potency was inconclusive: 16.4 µM [falling, partial curve].
In the case of `O=C(NC1CCCC1)C(c1c[nH]c2ccccc12)N(C(=O)Cn1nnc(-c2ccc(Cl)cc2)n1)c1ccccc1` (centres undefined), the Potency is reported as inconclusive: 8.91 µM [falling, partial curve].
With `Cc1cc([N+](=O)[O-])nn1CC(=O)NCCCN1CCOCC1` the Potency was inconclusive: 10 µM [falling, partial curve, poor fit].
For `COc1ccc(OC)c(NC(=O)C2C3C=CC(C3)C2C(=O)NCc2cccnc2)c1` (centres undefined), the Potency was inconclusive: 8.91 µM [falling, partial curve, poor fit].
For `CN(C)CCCNc1ncnc2c1c(-c1ccccc1)cn2-c1ccccc1`, the Potency was inconclusive: 4.47 µM [falling, partial curve, poor fit].
With `COc1cc(C(C(=O)NC2CCCCC2)N(C(=O)Cc2c[nH]c3ccccc23)c2ccccc2C)cc(OC)c1OC` (centres undefined) the “activity change, negative = inhibition” value was inactive: -16.4%.
Potency means the concentration at half of the fitted maximal effect.
